From PMC7787666, “BUB-1 targets PP2A:B56 to regulate chromosome congression during meiosis I in C. elegans oocytes” (eLife, 2020)
No constants are given. Whether binding was seen depends on the method and setting. Binding seen in cells or lysates may run through a third protein. Some entries that bind do so weakly or less than the wild type. Tags and fused reporters may be left off the sequences shown.

Biological target: T1, BUB-1::GFP (endogenous, GFP-tagged BUB-1) (C. elegans) (UniProt Q21776)
T1 sequence: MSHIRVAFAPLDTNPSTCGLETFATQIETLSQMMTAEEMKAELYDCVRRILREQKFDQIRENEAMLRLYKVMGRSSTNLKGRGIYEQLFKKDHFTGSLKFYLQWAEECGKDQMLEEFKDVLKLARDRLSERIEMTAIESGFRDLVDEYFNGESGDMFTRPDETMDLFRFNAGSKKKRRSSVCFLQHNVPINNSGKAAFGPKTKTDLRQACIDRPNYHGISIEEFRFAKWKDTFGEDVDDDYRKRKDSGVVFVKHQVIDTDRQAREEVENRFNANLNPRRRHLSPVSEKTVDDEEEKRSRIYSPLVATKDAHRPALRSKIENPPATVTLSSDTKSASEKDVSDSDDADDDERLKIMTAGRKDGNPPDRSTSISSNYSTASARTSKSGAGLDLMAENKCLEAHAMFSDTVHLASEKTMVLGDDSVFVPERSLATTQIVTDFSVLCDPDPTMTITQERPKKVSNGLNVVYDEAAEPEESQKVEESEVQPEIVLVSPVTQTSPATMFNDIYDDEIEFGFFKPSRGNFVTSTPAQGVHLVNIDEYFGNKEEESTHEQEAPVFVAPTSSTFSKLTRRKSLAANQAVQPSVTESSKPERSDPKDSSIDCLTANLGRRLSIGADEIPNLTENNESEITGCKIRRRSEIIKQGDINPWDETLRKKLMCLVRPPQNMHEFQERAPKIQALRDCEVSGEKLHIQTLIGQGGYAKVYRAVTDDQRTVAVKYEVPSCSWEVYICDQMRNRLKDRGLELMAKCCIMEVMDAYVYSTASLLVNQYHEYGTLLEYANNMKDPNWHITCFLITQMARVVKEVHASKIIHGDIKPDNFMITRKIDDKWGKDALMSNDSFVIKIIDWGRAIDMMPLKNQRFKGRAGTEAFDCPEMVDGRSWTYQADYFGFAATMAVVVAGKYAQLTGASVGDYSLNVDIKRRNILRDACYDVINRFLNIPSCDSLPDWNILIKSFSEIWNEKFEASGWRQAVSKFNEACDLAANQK
Test: co-IP; endogenous BUB-1::GFP immunoprecipitated from C. elegans embryo extracts with a GFP nanobody coupled to magnetic beads; washes with 300 mM potassium acetate, 0.1% NP40 at 4°C; eluate on SDS-PAGE, Coomassie staining

B1: BUB-3 (protein, UniProt Q9XWH0 1-343)
chain: MSTYQAATIVAAPNEFRVPFPPFVQISKVQFQREAGSRLLAASGWDGTCRVYEVGKLGDISEKLVFTHGKPLLTCTFAGYNKVAFGGVDHNVKLADIETGNGTQLGSHALAVRCMEFNPMSSLIVSGGWDSSVKLWDARSYGNGAIESVNVSSSVYAMDVLKHTILVGTKDRKIFMYDSRKLREPLQVRDSPLKYQTRAVQFFPTGEAFVVSSIEGRVAVEYVDQSGEEMMKRKYAFKCHREKDTDGTELIHPVHTVAFHPKYGTFATGGADGIVNIWDPFNRKRIIQLHKFETSISSLSFNEDGSQLAIATSYQYEKEIDPSPLPNNSITIRHITDPESRPK
Question: B1 was tested. Which binding did it give?
Answer: binds
